# Reference: patent publication US8044204B2, “8-methoxy-9H-isothiazolo[5,4-b]quinoline-3,4-diones and related compounds as anti-infective agents” (Achillion Pharmaceuticals, Inc., priority 2005, dated 2011)
# System: Hep2 cells
# Test: Cell viability staining with Alamar Blue (cytotoxicity CC50), Hep2
# Assay type: cell-based, human
# Settings: R6 = F, R8 = H compounds; hep2 CC50 over MRSA MIC
# Description: To determine whether the microcidal effect observed against S. aureus and E. coli is specific to bacterial cells, compounds are screened for cell viability effects on several human cell types.
# Optimal cell density is first determined by plating cells in a 96-well plate standard sterile tissue culture plates in 100 μl media, 10% FBS at six cell densities from 500 cells/well to 15,000 cells/well. A cell free well containing only media is used as a control. Cells are incubated at 37° C. in a 5% CO2 incubator for 24 hours. 10% culture volume (10 ul) of Alamar Blue (Biosource, DAL1100, 100 mL) is then added. Cells are incubated at 37° C. in a 5% CO2 incubator and read in a Victor V plate reader, 544 nm excitation, 590 nm emission, at 3, 4, and 24 hours after the addition of Alamar Blue. The cell number vs. change in fluorescence is plotted to determine linearity of signal vs. cell number. The optimal density varies between 500-15,000 cells/well depending on the specific cell type. The optimal density is selected based on the highest number of cells that is still in the linear response range.
# Determination of Compound Cytotoxicity
# Cells are plated at optimal cell density in a standard sterile tissue culture 96 well plate, and incubated at 37° C. O/N in a 5% CO2 incubator. 12 to 48 hours post-plating media is removed. The cells are washed 1 or 2 times with 1×PBS and replaced with fresh media containing the test compound in 1% DMSO. 24 to 72 hours after addition of compound, the media is removed, and the cells washed 1 to 2 times with 1×PBS. Fresh media containing 1/10 volume of Alamar Blue is then added. Plates are incubated 4 hours at 37° C. in a 5% CO2 incubator and read in a Victor V plate reader, 544 nm excitation, 590 nm emission.
# Compounds are diluted to 20 micromolar in 1% DMSO and media and screened in duplicate to obtain single concentration cytotoxicity data. Eight concentration points from 0.78 micromolar to 100 micromolar, run in duplicate, are used to determine cyclotoxicity CC50 values. Cells with 1% DMSO and media are used as a negative control, compounds having a known CC50 against a particular cell type are used as positive controls.
# The change in fluorescence vs. concentration of test compound is plotted to determine the cytotoxicity of the compound.
# Sample media conditions, optimal plating densities, and positive control compounds for two cell types screened are presented in Table III.
row,Compound,CC50/MIC
1,"O=c1[nH]sc2c1c(=O)c1cc(F)c(N3CC4CCCNC4C3)cc1n2C1CC1 (stereo not drawn) [Compound 46, 9-cyclopropyl-6-fluoro-7-(octahydro-pyrrolo[3,4-b]pyridin-6-yl)isothia-zolo[5,4-b]quinoline-3,4(2H,9H)-dione, hydrochloride]",1.2
2,"CC(C)(N)[C@@H]1CCN(c2cc3c(cc2F)c(=O)c2c(=O)[nH]sc2n3C2CC2)C1 [Compound 52, (R)-7-(3-(2-aminopropan-2-yl)pyrrolidin-1-yl)-9-cyclopropyl-6-fluoroisothia-zolo[5,4-b]quinoline-3,4(2H,9H)-dione, hydrochloride]",1.4
3,"CC(C)(N)[C@H]1CCN(c2cc3c(cc2F)c(=O)c2c(=O)[nH]sc2n3C2CC2)C1 [Compound 61, (S)-7-(3-(2-aminopropan-2-yl)pyrrolidin-1-yl)-9-cyclopropyl-6-fluoroiso-thiazolo[5,4-b]quinoline-3,4(2H,9H)-dione]",0.4
4,"NC[C@@H]1CCN(c2cc3c(cc2F)c(=O)c2c(=O)[nH]sc2n3C2CC2)C1 [Compound 64, (S)-7-(3-(aminomethyl)-pyrrolidin-1-yl)-9-cyclopropyl-6-fluoroiso-thiazolo[5,4-b]quinoline-3,4(2H,9H)-dione]",3.1
5,"NC[C@H]1CCN(c2cc3c(cc2F)c(=O)c2c(=O)[nH]sc2n3C2CC2)C1 [Compound 68, (R)-7-(3-(aminomethyl)-pyrrolidin-1-yl)-9-cyclopropyl-6-fluoroiso-thiazolo[5,4-b]quinoline-3,4(2H,9H)-dione]",2.3
6,"CNC(C)(C)[C@@H]1CCN(c2cc3c(cc2F)c(=O)c2c(=O)[nH]sc2n3C2CC2)C1 [Compound 80, (R)-9-cyclo-propyl-6-fluoro-7-(3-(2-(methylamino)propan-2-yl)-pyrrolidin-1-yl)isothia-zolo[5,4-b]quinoline-3,4(2H,9H)-dione]",0.3
7,"CN(C)C1CCN(c2cc3c(cc2F)c(=O)c2c(=O)[nH]sc2n3C2CC2)C1 (stereo not drawn) [Compound 114, 9-cyclo-propyl-7-(3-(dimethyl-amino)pyrrolidin-1-yl)-6-fluoroiso-thiazolo[5,4-b]quinoline-3,4(2H,9H)-dione]",1.5

# Same assay, conditions: R6 = F, R8 = Methoxy compounds; hep2 CC50 over MRSA MIC
row,Compound,CC50/MIC
1,"COc1c(N2CCNCC2)c(F)cc2c(=O)c3c(=O)[nH]sc3n(C3CC3)c12 [Compound 38, 9-cyclopropyl-6-fluoro-8-methoxy-7-(piperazin-1-yl)isothia-zolo[5,4-b]quinoline-3,4(2H,9H)-dione]",7.1
2,"COc1c(N2CC3CCCNC3C2)c(F)cc2c(=O)c3c(=O)[nH]sc3n(C3CC3)c12 (stereo not drawn) [Compound 45, 9-cyclopropyl-6-fluoro-8-methoxy-7-(octahydro-pyrrolo[3,4-b]pyridin-6-yl)isothia-zolo[5,4-b]quinoline-3,4(2H,9H)-dione, hydrochloride]",46.5
3,"COc1c(N2CCC(N(C)C)C2)c(F)cc2c(=O)c3c(=O)[nH]sc3n(C3CC3)c12 (stereo not drawn) [Compound 49, 9-cyclopropyl-7-(3-(dimethyl-amino)pyrrolidin-1-yl)-6-fluoro-8-methoxy-isothiazolo[5,4-b]quinoline-3,4(2H,9H)-dione]",17.0
4,"COc1c(N2CC[C@@H](C(C)(C)N)C2)c(F)cc2c(=O)c3c(=O)[nH]sc3n(C3CC3)c12 [Compound 53, (R)-7-(3-(2-aminopropan-2-yl)pyrrolidin-1-yl)-9-cyclopropyl-6-fluoro-8-methoxyiso-thiazolo[5,4-b]quinoline-3,4(2H,9H)-dione]",85.0
5,"COc1c(N2CC[C@H](C(C)(C)N)C2)c(F)cc2c(=O)c3c(=O)[nH]sc3n(C3CC3)c12 [Compound 58, (S)-7-(3-(2-aminopropan-2-yl)pyrrolidin-1-yl)-9-cyclopropyl-6-fluoro-8-methoxyiso-thiazolo[5,4-b]quinoline-3,4(2H,9H)-dione]",40.7
6,"COc1c(N2CC[C@@H](CN)C2)c(F)cc2c(=O)c3c(=O)[nH]sc3n(C3CC3)c12 [Compound 63, (S)-7-(3-(aminomethyl)-pyrrolidin-1-yl)-9-cyclopropyl-6-fluoro-8-methoxyiso-thiazolo[5,4-b]quinoline-3,4(2H,9H)-dione]",26.2
7,"COc1c(N2CC[C@H](CN)C2)c(F)cc2c(=O)c3c(=O)[nH]sc3n(C3CC3)c12 [Compound 67, (R)-7-(3-(aminomethyl)-pyrrolidin-1-yl)-9-cyclopropyl-6-fluoro-8-methoxyiso-thiazolo[5,4-b]quinoline-3,4(2H,9H)-dione]",44.0
8,"CNC(C)(C)[C@@H]1CCN(c2c(F)cc3c(=O)c4c(=O)[nH]sc4n(C4CC4)c3c2OC)C1 [Compound 76, (R)-9-cyclo-propyl-6-fluoro-8-methoxy-7-(3-(2-(methyl-amino)propan-2-yl)pyrrolidin-1-yl)isothia-zolo[5,4-b]quinoline-3,4(2H,9H)-dione]",216.0

# Structures can show the parent of a compound that is named as a salt.
